Test [1] deals with Poly(ADP-ribose) polymerase-1 (mouse (endogenous in mouse embryonic fibroblasts)) (UniProt P11103). Description: co-IP; anti-PARP-1 rabbit polyclonal antibody with 1 mg cell extract, protein A-sepharose/protein G-agarose beads, 4°C, lysis buffer 50 mM Tris-HCl pH 7.5, 150 mM NaCl, 0.2% Triton X-100, 0.3% NP-40; blot for Ku70; wild-type and pol β null cells, untreated or treated with 10 mM MMS and left to repair.

By UniProt entry, the sequences of proteins in these tests, tags left out.
UniProt P11103: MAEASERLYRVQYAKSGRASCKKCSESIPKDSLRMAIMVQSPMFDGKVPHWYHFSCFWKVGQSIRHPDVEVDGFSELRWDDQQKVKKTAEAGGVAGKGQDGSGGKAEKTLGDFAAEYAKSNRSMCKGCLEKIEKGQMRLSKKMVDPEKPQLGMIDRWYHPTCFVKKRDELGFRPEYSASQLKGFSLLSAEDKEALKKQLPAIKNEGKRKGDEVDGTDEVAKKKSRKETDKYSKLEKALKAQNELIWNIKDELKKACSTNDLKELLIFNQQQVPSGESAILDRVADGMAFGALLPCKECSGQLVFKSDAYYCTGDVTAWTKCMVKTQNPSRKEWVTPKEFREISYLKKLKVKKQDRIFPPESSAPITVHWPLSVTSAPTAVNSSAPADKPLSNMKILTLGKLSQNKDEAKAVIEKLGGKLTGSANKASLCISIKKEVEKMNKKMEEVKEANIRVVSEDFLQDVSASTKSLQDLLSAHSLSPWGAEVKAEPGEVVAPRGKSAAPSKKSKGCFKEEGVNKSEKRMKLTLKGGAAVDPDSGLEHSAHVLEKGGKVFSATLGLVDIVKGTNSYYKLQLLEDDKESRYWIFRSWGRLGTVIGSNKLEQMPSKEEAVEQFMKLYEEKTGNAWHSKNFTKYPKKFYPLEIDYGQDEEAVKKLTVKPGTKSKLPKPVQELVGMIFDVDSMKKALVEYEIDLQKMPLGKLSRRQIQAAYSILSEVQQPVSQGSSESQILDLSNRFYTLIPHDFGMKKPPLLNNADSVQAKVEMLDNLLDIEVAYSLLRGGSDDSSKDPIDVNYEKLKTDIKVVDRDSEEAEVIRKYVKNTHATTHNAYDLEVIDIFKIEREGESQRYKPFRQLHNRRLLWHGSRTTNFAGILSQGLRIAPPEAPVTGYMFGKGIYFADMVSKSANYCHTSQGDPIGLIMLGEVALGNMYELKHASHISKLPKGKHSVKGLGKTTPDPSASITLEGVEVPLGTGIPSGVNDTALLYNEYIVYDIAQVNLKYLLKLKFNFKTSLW
UniProt P23475: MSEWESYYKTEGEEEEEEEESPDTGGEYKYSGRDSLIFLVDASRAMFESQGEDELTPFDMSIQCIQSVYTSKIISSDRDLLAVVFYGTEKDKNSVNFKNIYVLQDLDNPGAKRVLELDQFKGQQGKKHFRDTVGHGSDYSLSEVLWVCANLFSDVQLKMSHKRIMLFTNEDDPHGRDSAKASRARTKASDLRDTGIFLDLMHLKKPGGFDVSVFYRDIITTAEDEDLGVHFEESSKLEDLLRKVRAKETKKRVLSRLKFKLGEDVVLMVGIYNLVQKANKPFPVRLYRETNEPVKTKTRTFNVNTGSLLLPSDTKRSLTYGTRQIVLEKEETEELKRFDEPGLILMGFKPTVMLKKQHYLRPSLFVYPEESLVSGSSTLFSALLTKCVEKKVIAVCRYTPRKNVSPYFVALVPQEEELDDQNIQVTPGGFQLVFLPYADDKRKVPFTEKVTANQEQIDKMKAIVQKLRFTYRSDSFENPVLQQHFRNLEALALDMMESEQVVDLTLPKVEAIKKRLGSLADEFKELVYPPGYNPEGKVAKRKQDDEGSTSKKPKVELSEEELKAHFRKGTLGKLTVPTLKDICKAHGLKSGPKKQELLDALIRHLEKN

Test [2] has as its target Ku70 (mouse (endogenous in mouse embryonic fibroblasts)) (UniProt P23475). Nature of the test: co-IP; anti-Ku70 antibody with cell extracts; blot for PARP-1; wild-type and pol β null cells, untreated or treated with 10 mM MMS and left to repair.

Results are given in words; binding and its absence hold for the method and conditions named. In cells and extracts the contact can be indirect. Some binding calls cover weakened binding; strength is not graded here.

As for Ku70 (from UniProt P23475 1-608), the binding result in test [1] is given as “binds”. Turning to “Poly(ADP-ribose) polymerase-1 (from UniProt P11103 1-1013)”, the binding entry in test [2] is “binds”.

The values above are taken from publication PMC3492265.
